Reference: the odorant receptor screen of Mainland et al. (2015)
“And” between values parts separate entries of the source, which are not always exact repeats. Equal values may be shown once. The list shows a part of the results. Each value is one well over the wells without odorant, computed here; the data are noisy.

system: OR7C2 clone 1292; assay: odorant receptor activation (CRE luciferase / Renilla) (fold of no-odor wells); higher = more activation; conditions: 100 µM

| SMILES | odorant receptor activation |
| --- | --- |
| CCOc1cc(C=O)ccc1O [ethyl vanillin] | 0.606 and 0.865 |
| CCCCOC(C)=O [butyl acetate] | 0.623 |
| CS [methanethiol] | 1.01 |
| CCC(C)=O [2-butanone] | 0.843 |

system: OR7D2 clone 1405; assay: as above; conditions: 100 µM

| SMILES | odorant receptor activation |
| --- | --- |
| CCOc1cc(C=O)ccc1O [ethyl vanillin] | 1.28 and 1.14 |
| CCCCOC(C)=O [butyl acetate] | 0.321 |
| CS [methanethiol] | 0.878 |
| CCC(C)=O [2-butanone] | 0.694 |

system: OR7D4 clone 1298; assay: as above; conditions: 100 µM

| SMILES | odorant receptor activation |
| --- | --- |
| CCOc1cc(C=O)ccc1O [ethyl vanillin] | 2.52 and 0.902 |
| CCCCOC(C)=O [butyl acetate] | 0.733 |
| CS [methanethiol] | 0.847 |
| CCC(C)=O [2-butanone] | 0.882 |

system: OR7E24 P242S clone 1314; assay: as above; conditions: 100 µM

| SMILES | odorant receptor activation |
| --- | --- |
| CCOc1cc(C=O)ccc1O [ethyl vanillin] | 1.02 and 1.31 |
| CCCCOC(C)=O [butyl acetate] | 0.743 |
| CS [methanethiol] | 0.986 |
| CCC(C)=O [2-butanone] | 0.786 |

system: OR7G1 clone 1295; assay: as above; conditions: 100 µM

| SMILES | odorant receptor activation |
| --- | --- |
| CCOc1cc(C=O)ccc1O [ethyl vanillin] | 0.674 and 1.23 |
| CCCCOC(C)=O [butyl acetate] | 0.783 |
| CS [methanethiol] | 1.14 |
| CCC(C)=O [2-butanone] | 1.28 |

system: OR7G2 V263A/F281V clone 1312; assay: as above; conditions: 100 µM

| SMILES | odorant receptor activation |
| --- | --- |
| CCOc1cc(C=O)ccc1O [ethyl vanillin] | 0.436 and 0.818 |
| CCCCOC(C)=O [butyl acetate] | 0.745 |
| CS [methanethiol] | 0.889 |
| CCC(C)=O [2-butanone] | 0.981 |

system: OR7G2 clone 1475; assay: as above; conditions: 100 µM

| SMILES | odorant receptor activation |
| --- | --- |
| CCOc1cc(C=O)ccc1O [ethyl vanillin] | 1.31 and 2.05 and 0.954 |
| CCCCOC(C)=O [butyl acetate] | 1.31 |
| CS [methanethiol] | 1.11 |
| CCC(C)=O [2-butanone] | 1.02 |

system: OR7G3 clone 1297; assay: as above; conditions: 100 µM

| SMILES | odorant receptor activation |
| --- | --- |
| CCOc1cc(C=O)ccc1O [ethyl vanillin] | 1.03 and 1.02 |
| CCCCOC(C)=O [butyl acetate] | 0.756 |
| CS [methanethiol] | 0.932 |
| CCC(C)=O [2-butanone] | 0.521 |

system: OR8A1 clone 1503; assay: as above; conditions: 100 µM

| SMILES | odorant receptor activation |
| --- | --- |
| CCOc1cc(C=O)ccc1O [ethyl vanillin] | 1.1 and 1.75 and 1.53 |
| CCCCOC(C)=O [butyl acetate] | 1.17 |
| CS [methanethiol] | 0.903 |
| CCC(C)=O [2-butanone] | 1.02 |

system: OR8B12 clone 1731; assay: as above; conditions: 100 µM

| SMILES | odorant receptor activation |
| --- | --- |
| CCOc1cc(C=O)ccc1O [ethyl vanillin] | 0.855 |
| CCCCOC(C)=O [butyl acetate] | 0.788 |
| CS [methanethiol] | 0.864 |
| CCC(C)=O [2-butanone] | 0.9 |
